Results taken from the supplement of paper PMC10849652.
This is one part of the list.

By UniProt entry, the sequences of proteins in these tests, tags left out. Where a name states a change or a piece, a line headed by the entry shows the natural chain unless it says otherwise.
UniProt P07948: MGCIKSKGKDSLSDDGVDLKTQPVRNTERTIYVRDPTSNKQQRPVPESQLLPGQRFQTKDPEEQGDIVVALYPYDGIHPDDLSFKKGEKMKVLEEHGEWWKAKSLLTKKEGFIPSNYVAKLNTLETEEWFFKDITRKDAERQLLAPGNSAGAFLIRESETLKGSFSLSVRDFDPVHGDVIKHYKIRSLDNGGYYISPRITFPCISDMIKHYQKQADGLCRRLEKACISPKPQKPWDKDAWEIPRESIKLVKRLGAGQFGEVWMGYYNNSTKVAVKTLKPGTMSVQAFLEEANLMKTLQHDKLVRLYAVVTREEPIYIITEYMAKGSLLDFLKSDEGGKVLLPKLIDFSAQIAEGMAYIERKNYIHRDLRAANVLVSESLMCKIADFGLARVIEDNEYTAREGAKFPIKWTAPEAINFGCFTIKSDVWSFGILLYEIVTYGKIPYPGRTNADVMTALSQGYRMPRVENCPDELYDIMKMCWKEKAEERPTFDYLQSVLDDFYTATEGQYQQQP
UniProt Q9UKM7: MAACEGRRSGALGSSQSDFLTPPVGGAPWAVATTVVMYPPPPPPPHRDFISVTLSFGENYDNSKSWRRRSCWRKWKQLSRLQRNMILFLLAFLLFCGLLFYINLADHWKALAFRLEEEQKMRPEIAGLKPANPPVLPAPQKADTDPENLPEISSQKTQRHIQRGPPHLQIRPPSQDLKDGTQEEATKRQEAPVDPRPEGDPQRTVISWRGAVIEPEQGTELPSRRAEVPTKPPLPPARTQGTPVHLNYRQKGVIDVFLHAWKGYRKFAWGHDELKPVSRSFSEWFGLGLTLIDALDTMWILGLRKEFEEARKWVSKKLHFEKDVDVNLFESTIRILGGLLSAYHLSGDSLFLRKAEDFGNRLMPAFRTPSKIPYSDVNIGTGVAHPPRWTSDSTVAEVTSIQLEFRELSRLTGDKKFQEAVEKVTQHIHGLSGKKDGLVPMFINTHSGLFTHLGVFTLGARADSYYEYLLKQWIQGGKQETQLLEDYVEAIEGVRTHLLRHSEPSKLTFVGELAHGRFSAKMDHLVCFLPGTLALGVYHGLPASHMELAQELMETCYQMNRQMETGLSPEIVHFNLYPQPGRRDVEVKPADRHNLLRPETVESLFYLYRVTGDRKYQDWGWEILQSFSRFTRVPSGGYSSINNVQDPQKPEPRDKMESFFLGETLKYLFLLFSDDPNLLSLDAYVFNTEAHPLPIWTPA
UniProt Q9H063: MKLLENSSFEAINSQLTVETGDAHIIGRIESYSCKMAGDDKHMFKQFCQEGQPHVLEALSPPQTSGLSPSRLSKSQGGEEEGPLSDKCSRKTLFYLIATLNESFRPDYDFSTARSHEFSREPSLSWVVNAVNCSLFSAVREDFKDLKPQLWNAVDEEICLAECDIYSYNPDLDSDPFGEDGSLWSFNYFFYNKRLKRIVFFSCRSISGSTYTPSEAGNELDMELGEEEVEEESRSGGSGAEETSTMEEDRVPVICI
UniProt O60476: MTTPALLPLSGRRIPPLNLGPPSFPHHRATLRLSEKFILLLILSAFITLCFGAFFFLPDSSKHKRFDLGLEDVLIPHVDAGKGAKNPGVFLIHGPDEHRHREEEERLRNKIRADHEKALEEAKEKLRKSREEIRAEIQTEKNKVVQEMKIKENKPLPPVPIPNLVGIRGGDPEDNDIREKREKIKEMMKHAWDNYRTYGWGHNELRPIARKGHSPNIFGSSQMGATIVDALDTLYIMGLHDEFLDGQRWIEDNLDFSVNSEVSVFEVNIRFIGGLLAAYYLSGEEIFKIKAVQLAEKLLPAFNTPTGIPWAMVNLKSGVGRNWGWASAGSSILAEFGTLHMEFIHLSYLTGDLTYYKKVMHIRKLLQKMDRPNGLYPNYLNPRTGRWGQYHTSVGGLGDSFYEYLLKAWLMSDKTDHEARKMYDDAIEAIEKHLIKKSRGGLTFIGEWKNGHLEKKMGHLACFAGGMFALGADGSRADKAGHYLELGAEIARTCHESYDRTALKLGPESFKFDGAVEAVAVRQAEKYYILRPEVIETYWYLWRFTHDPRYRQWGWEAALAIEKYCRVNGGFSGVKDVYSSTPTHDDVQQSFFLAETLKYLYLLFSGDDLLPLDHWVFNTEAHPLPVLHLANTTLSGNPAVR
UniProt Q9NTJ4: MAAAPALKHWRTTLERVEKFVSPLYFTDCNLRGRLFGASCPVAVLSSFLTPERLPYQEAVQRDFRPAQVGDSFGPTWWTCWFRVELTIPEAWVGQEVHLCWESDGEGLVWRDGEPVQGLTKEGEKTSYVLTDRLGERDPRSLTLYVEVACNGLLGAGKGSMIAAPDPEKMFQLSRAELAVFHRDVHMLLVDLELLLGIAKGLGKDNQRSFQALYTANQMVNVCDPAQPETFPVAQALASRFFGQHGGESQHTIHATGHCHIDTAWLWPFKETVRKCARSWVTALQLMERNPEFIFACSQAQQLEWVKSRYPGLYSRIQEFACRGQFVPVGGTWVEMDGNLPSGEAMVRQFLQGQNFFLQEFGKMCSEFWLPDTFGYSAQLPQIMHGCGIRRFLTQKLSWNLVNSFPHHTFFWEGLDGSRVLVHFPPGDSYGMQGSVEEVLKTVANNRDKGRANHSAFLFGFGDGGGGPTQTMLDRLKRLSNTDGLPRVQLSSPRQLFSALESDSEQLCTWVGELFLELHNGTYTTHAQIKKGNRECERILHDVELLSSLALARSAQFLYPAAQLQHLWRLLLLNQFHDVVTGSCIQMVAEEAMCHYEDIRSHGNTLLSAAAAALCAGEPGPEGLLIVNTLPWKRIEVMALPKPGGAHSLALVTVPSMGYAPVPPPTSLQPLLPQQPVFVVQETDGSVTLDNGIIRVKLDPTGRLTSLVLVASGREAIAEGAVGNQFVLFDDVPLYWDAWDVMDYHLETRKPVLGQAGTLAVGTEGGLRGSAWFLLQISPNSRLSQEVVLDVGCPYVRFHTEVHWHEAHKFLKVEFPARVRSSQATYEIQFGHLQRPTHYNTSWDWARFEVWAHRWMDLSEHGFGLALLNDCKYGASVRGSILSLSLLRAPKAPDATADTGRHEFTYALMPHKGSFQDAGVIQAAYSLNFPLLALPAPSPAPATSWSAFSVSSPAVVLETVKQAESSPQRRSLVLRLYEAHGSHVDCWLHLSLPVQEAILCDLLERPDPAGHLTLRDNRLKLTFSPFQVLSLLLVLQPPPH
UniProt O95819: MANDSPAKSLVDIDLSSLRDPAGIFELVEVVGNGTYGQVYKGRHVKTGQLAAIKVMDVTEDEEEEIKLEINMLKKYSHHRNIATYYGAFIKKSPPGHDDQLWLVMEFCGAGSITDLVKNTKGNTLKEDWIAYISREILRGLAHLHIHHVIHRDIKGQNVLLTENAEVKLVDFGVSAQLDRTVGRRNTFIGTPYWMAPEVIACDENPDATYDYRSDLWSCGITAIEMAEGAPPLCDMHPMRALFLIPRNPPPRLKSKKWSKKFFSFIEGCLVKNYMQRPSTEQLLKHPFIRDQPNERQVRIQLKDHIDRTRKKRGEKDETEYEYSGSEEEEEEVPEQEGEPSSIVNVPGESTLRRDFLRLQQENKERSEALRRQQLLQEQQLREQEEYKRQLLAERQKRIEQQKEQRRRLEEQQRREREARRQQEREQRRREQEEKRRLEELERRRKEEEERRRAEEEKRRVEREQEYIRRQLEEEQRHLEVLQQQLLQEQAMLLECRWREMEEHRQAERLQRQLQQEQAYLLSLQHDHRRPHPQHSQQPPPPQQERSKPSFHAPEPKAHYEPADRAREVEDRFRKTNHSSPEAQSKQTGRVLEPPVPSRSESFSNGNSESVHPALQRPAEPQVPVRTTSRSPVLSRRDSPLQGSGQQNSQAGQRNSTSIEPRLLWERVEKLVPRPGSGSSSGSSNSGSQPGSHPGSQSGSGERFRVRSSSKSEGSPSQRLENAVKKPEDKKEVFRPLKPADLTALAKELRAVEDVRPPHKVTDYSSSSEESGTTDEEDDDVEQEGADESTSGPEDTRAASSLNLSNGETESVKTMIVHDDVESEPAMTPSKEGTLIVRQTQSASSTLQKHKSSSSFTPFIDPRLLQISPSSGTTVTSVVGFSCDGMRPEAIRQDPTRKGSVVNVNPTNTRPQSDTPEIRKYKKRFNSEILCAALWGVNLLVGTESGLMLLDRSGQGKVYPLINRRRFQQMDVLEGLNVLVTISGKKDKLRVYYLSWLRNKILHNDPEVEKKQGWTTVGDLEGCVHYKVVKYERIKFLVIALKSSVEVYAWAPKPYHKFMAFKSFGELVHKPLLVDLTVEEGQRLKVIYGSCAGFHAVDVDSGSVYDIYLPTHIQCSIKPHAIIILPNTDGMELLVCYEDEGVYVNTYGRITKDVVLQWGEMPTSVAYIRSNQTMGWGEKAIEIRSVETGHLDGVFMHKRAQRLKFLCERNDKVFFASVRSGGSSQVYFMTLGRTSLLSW
UniProt P31153, whole entry, looked up: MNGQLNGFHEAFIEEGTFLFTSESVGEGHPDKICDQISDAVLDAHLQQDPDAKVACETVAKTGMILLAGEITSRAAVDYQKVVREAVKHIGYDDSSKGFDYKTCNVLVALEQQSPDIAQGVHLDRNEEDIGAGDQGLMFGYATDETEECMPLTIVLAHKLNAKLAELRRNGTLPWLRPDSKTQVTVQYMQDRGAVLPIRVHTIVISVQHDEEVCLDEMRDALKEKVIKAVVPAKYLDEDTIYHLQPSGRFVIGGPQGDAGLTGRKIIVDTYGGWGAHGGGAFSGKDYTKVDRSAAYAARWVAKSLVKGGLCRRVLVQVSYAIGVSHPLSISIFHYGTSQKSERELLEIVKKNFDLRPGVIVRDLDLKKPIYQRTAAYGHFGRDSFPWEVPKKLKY
UniProt Q96QZ7: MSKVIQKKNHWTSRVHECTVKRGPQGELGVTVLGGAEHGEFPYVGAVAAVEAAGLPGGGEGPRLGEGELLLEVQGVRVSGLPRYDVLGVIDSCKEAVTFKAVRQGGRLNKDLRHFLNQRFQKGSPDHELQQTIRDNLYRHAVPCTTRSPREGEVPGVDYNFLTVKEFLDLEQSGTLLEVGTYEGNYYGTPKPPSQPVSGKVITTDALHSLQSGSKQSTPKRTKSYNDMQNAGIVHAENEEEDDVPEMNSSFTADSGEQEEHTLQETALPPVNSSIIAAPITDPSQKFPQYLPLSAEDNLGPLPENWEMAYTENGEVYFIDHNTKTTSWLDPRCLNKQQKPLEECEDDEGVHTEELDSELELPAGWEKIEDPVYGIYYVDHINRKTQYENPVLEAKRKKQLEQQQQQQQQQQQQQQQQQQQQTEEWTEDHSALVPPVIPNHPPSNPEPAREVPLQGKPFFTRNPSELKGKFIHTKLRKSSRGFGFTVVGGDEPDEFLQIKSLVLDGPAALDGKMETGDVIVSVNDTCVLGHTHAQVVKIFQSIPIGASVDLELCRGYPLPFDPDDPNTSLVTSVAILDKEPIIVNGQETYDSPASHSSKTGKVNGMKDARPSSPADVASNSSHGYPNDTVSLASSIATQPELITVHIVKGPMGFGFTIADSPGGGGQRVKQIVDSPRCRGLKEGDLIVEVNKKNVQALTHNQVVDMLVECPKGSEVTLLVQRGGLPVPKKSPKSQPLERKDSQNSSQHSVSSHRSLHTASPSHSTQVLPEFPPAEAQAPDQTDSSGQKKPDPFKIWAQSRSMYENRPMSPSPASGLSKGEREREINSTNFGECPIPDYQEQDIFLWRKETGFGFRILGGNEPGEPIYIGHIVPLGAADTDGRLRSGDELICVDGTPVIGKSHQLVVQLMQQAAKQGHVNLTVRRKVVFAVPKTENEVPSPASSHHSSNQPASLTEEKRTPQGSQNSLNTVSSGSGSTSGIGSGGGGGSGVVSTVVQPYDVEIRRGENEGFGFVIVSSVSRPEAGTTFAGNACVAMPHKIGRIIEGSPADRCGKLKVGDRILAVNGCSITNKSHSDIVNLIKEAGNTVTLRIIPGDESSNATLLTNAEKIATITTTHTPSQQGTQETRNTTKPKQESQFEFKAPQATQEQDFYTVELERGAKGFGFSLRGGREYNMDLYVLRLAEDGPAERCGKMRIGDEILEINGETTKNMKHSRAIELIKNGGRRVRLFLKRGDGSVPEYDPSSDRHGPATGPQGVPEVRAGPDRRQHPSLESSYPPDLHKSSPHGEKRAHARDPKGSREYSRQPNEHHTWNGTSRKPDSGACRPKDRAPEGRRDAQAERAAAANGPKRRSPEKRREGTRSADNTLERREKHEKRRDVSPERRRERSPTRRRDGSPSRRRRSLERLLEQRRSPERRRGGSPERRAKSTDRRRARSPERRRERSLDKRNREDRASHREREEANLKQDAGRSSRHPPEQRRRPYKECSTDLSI
UniProt Q9NX47: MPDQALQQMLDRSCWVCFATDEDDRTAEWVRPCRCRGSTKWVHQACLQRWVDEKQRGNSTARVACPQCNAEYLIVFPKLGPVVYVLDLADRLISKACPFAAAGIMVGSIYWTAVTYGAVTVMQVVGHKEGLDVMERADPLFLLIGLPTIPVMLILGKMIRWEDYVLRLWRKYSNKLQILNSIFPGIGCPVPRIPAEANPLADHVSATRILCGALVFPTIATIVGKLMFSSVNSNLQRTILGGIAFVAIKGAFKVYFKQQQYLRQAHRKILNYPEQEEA

Key:
Assay in all cases: log2 fold change, soluble protein after heating vs DMSO (PISA); higher = thermal stabilisation; K562 lysate, 10 uM; active = over 0.2 and 3.5 SD of the protein, either way, in both replicates (recomputed)
ibrutinib = compound: C=CC(=O)N1CCC[C@@H](n2nc(-c3ccc(Oc4ccccc4)cc3)c3c(N)ncnc32)C1 [ibrutinib]
How it was run: (§1)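 K562 pellets were dounce-homogenised in PBS pH 7.4 with 1 mM MgCl2, and the crude extract at 1 mg/mL protein was treated with 10 μM compound for 30 min. Aliquots were heated for 3 min across 48°C-58°C, pooled, and brought to 0.5% NP-40 at 4°C; soluble protein was the supernatant after 21,000xg for 90 min. Soluble protein was quantified by TMTpro 16plex LC-MS/MS with channel sums equalised, and reported as log2 fold change in thermal stability against DMSO controls, with values from duplicates.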

[1] = compound: CC(=O)c1cnc2ccc(-c3cc(Cl)c(O)c(Cl)c3)nc2c1N[C@H]1CC[C@H](CN(C)C)CC1
How it was run: as §1

ralimetinib = compound: CC(C)(C)Cn1c(N)nc2ccc(-c3[nH]c(C(C)(C)C)nc3-c3ccc(F)cc3)nc21 [ralimetinib]
How it was run: as §1

[2] = compound: CC(C)(O)CC(=O)NCCn1ccc2ncnc(Nc3ccc(Oc4cccc(C(F)(F)F)c4)c(Cl)c3)c21
How it was run: as §1

[3] = compound: CC(C)C1=C2N=C(C=C(N2N=C1)NCC3=CC=CC=C3)NCCCCCCN
How it was run: as §1

[4] = compound: CC1=C(C(CC(=O)N1)C2=CC=C(C=C2)C(F)(F)F)C(=O)NC3=C(C=C4C(=C3)C=NN4)F
How it was run: as §1

[5] = compound: CC1=C(C2=C(C=C1)C(=O)C3=CC=CC=C3N2CCCN)C
How it was run: as §1

[6] = compound: CC1=C(C=C(C=C1)NC(=O)C2=CC(=CC=C2)C(C)(C)C#N)NC3=CC4=C(C=C3)N=CN(C4=O)C
How it was run: as §1

[7] = compound: CC1=C(C=C(C=C1)NC(=O)C2=CC(=CC=C2)N(C)C)NC(=O)C3=CC=C(C=C3)O
How it was run: as §1

[8] = compound: CC1=CC=C(C=C1)SC2=C3C=C(SC3=CN=C2)C(=O)N
How it was run: as §1

vemurafenib = compound: CCCS(=O)(=O)Nc1ccc(F)c(C(=O)c2c[nH]c3ncc(-c4ccc(Cl)cc4)cc23)c1F [vemurafenib]
How it was run: as §1

[9] = compound: CCCS(=O)(=O)Nc1ccc(F)c(C(=O)c2c[nH]c3ncc(Cl)cc23)c1F
How it was run: as §1

barasertib = compound: CCN(CCCOc1ccc2c(Nc3cc(CC(=O)Nc4cccc(F)c4)[nH]n3)ncnc2c1)CCOP(=O)(O)O [barasertib]
How it was run: as §1

[10] = compound: CC[C@@H]1C(=O)N(C)c2cnc(Nc3ccc(C(=O)NC4CCN(C)CC4)cc3OC)nc2N1C1CCCC1
How it was run: as §1

volasertib = compound: CC[C@@H]1C(=O)N(C)c2cnc(Nc3ccc(C(=O)N[C@H]4CC[C@H](N5CCN(CC6CC6)CC5)CC4)cc3OC)nc2N1C(C)C [volasertib]
How it was run: as §1

[11] = compound: CCn1c(C(=O)N(C2CC2)C2CC2)cc2c3c(ncn3C)c(Nc3cc(C)n(C)n3)nc21
How it was run: as §1

[12] = compound: CCn1cc(-c2ccnc3[nH]c(-c4cccc(CN(C)C)c4)cc23)c(-c2ccc(NC(=O)N(C)C)cc2)n1
How it was run: as §1

[13] = compound: CN1CCC(CNc2ccc3ncc(-c4cccc(OC(F)(F)F)c4)n3n2)CC1
How it was run: as §1

saracatinib = compound: CN1CCN(CCOc2cc(OC3CCOCC3)c3c(Nc4c(Cl)ccc5c4OCO5)ncnc3c2)CC1 [saracatinib]
How it was run: as §1

sotrastaurin = compound: CN1CCN(c2nc(C3=C(c4c[nH]c5ccccc45)C(=O)NC3=O)c3ccccc3n2)CC1 [sotrastaurin]
How it was run: as §1

Measured: log2 fold change

LYN (UniProt P07948)
active: ibrutinib 1.15
inactive: [1] 0.141 | ralimetinib -0.068 | [2] 0.068 | [3] 0 | [4] 0.003 | [5] -0.043 | [6] 0.479 | [7] 0.007 | [8] -0.126 | vemurafenib 0.285 | [9] 0.05 | barasertib 0.258 | [10] -0.067 | volasertib -0.134 | [11] 0.004 | [12] -0.012 | [13] 0.233 | saracatinib 0.605 | sotrastaurin -0.045

MAGEA9 (UniProt P43362)
inactive: ibrutinib 0.022 | [1] -0.009 | ralimetinib -0.002 | [2] -0.032 | [3] -0.02 | [4] -0.029 | [5] -0.013 | [6] 0.061 | [7] 0.015 | [8] 0.028 | vemurafenib 0.057 | [9] 0.023 | barasertib 0.019 | [10] -0.013 | volasertib -0.024 | [11] 0.031 | [12] -0.116 | [13] 0.061 | saracatinib -0.003 | sotrastaurin -0.033

MAN1B1 (UniProt Q9UKM7)
inactive: ibrutinib 0 | [1] 0.025 | ralimetinib -0.05 | [2] -0.014 | [3] 0.025 | [4] 0.046 | [5] 0.025 | [6] 0.066 | [7] -0.056 | [8] 0.025 | vemurafenib 0.072 | [9] -0.04 | barasertib 0.068 | [10] -0.034 | volasertib -0.018 | [11] -0.041 | [12] -0.075 | [13] 0.111 | saracatinib 0.024 | sotrastaurin 0.053

MAF1 (UniProt Q9H063)
inactive: ibrutinib -0.007 | [1] -0.001 | ralimetinib 0.107 | [2] 0.011 | [3] -0.006 | [4] 0.006 | [5] -0.034 | [6] 0.049 | [7] 0.038 | [8] -0.002 | vemurafenib -0.061 | [9] 0.012 | barasertib 0.007 | [10] 0.049 | volasertib -0.011 | [11] 0.071 | [12] 0.097 | [13] 0.029 | saracatinib 0.145 | sotrastaurin -0.016

MAN1A2 (UniProt O60476)
inactive: ibrutinib 0.01 | [1] -0.046 | ralimetinib 0.017 | [2] -0.053 | [3] -0.026 | [4] 0.017 | [5] 0.007 | [6] 0.007 | [7] -0.004 | [8] -0.043 | vemurafenib -0.02 | [9] 0.008 | barasertib 0.044 | [10] 0.039 | volasertib 0.002 | [11] -0.014 | [12] 0.144 | [13] -0.098 | saracatinib -0.006 | sotrastaurin 0.041

MAP1A (UniProt P78559)
inactive: ibrutinib 0.018 | [1] 0.006 | ralimetinib 0.011 | [2] 0.01 | [3] 0 | [4] -0.023 | [5] 0.008 | [6] 0.011 | [7] 0.01 | [8] -0.006 | vemurafenib 0.001 | [9] 0.006 | barasertib -0.005 | [10] 0.021 | volasertib 0.007 | [11] -0.011 | [12] 0.001 | [13] 0.004 | saracatinib 0.003 | sotrastaurin 0.011

MAN2C1 isoform 4 (UniProt Q9NTJ4)
inactive: ibrutinib 0.051 | [1] -0.017 | ralimetinib 0.076 | [2] 0.043 | [3] -0.032 | [4] -0.044 | [5] -0.069 | [6] 0.003 | [7] 0.001 | [8] -0.011 | vemurafenib -0.005 | [9] 0.051 | barasertib -0.024 | [10] 0.027 | volasertib 0.004 | [11] 0.007 | [12] -0.017 | [13] 0.054 | saracatinib -0.029 | sotrastaurin 0.03

LYRM7 (UniProt Q5U5X0)
inactive: ibrutinib 0.155 | [1] -0.035 | ralimetinib -0.102 | [2] 0.014 | [3] 0.012 | [4] 0.016 | [5] -0.053 | [6] 0.001 | [7] -0.02 | [8] -0.017 | vemurafenib 0.033 | [9] 0.025 | barasertib 0.027 | [10] -0.026 | volasertib 0.056 | [11] 0.03 | [12] -0.061 | [13] 0.001 | saracatinib 0.013 | sotrastaurin -0.018

MAP4K4 isoform 3 (UniProt O95819)
inactive: ibrutinib -0.052 | [1] -0.021 | ralimetinib -0.065 | [2] -0.002 | [3] 0.046 | [4] 0.067 | [5] -0.042 | [6] -0.022 | [7] 0.062 | [8] -0.056 | vemurafenib -0.185 | [9] -0.119 | barasertib -0.029 | [10] -0.071 | volasertib 0.011 | [11] -0.011 | [12] 0.169 | [13] -0.158 | saracatinib 0.082

MAT2A (UniProt P31153)
inactive: ibrutinib -0.019 | [1] 0.006 | ralimetinib 0.014 | [2] -0.023 | [3] -0.02 | [4] -0.002 | [5] -0.004 | [6] 0.008 | [7] 0.012 | [8] 0.001 | vemurafenib -0.011 | [9] -0.023 | barasertib -0.032 | [10] -0.021 | volasertib 0.022 | [11] -0.017 | [12] 0.013 | [13] 0.008 | saracatinib -0.012 | sotrastaurin 0.009

MAP1LC3B2 (UniProt A6NCE7)
inactive: ibrutinib 0.001 | [1] 0.031 | ralimetinib -0.071 | [2] 0.016 | [3] -0.004 | [4] -0.018 | [5] -0.015 | [6] -0.044 | [7] -0.062 | [8] 0.021 | vemurafenib 0.014 | [9] -0.017 | barasertib 0.035 | [10] -0.031 | volasertib 0 | [11] -0.022 | [12] 0.032 | [13] 0.011 | saracatinib -0.01 | sotrastaurin 0.008

MAGI1 isoform 6 (UniProt Q96QZ7)
inactive: ibrutinib 0.025 | [1] -0.01 | ralimetinib -0.005 | [2] -0.028 | [3] 0.016 | [4] -0.017 | [5] -0.052 | [6] 0.023 | [7] 0.009 | [8] 0.012 | vemurafenib 0.01 | [9] 0.035 | barasertib 0.032 | [10] -0.033 | volasertib 0.002 | [11] -0.024 | [12] 0.023 | [13] 0.036 | saracatinib -0.011 | sotrastaurin 0.006

MAST4 (UniProt O15021)
inactive: ibrutinib 0.019 | ralimetinib 0.04 | [2] 0.061 | [3] -0.032 | [4] -0.075 | [5] 0.032 | [6] -0.173 | [7] -0.023 | [8] 0.049 | vemurafenib -0.085 | [9] -0.049 | barasertib 0.051 | [10] -0.126 | volasertib -0.017 | [11] 0.121 | [12] -0.204 | [13] 0.059 | saracatinib -0.001 | sotrastaurin -0.015
active: [1] 0.423

LYSMD1 (UniProt Q96S90)
inactive: ibrutinib 0.069 | [1] 0.004 | ralimetinib -0.023 | [2] -0.006 | [3] 0.003 | [4] -0.004 | [5] 0.009 | [6] 0.093 | [7] -0.028 | [8] -0.014 | vemurafenib 0.007 | [9] 0.017 | barasertib 0.01 | [10] 0.026 | volasertib 0.047 | [11] -0.001 | [12] -0.006 | [13] 0.037 | saracatinib 0.089 | sotrastaurin 0.01

Taken from the entries so far (two entries):
MAT2A (UniProt P31153)
inactive: ibrutinib -0.019 | [1] 0.006 | ralimetinib 0.014 | [2] -0.023 | [3] -0.02 | [4] -0.002 | [5] -0.004 | [6] 0.008 | [7] 0.012 | [8] 0.001 | vemurafenib -0.011 | [9] -0.023 | barasertib -0.032 | [10] -0.021 | volasertib 0.022 | [11] -0.017 | [12] 0.013 | [13] 0.008 | saracatinib -0.012 | sotrastaurin 0.009

MAP1LC3B2 (UniProt A6NCE7)
inactive: ibrutinib 0.001 | [1] 0.031 | ralimetinib -0.071 | [2] 0.016 | [3] -0.004 | [4] -0.018 | [5] -0.015 | [6] -0.044 | [7] -0.062 | [8] 0.021 | vemurafenib 0.014 | [9] -0.017 | barasertib 0.035 | [10] -0.031 | volasertib 0 | [11] -0.022 | [12] 0.032 | [13] 0.011 | saracatinib -0.01 | sotrastaurin 0.008

Next part.

MAN1A1 (UniProt P33908)
inactive: ibrutinib -0.014 | [1] -0.008 | ralimetinib 0.038 | [2] -0.038 | [3] -0.097 | [4] 0.044 | [5] -0.005 | [6] -0.024 | [7] -0.017 | [8] -0.001 | vemurafenib -0.049 | [9] -0.033 | barasertib -0.015 | [10] -0.065 | volasertib 0.026 | [11] 0.065 | [12] -0.036 | [13] 0.06 | saracatinib 0.038 | sotrastaurin 0.002

MARCHF5 (UniProt Q9NX47)
inactive: ibrutinib 0.026 | [1] 0.001 | ralimetinib 0.059 | [2] -0.053 | [3] 0.003 | [4] -0.099 | [5] -0.104 | [6] 0.026 | [7] -0.02 | [8] -0.002 | vemurafenib 0.019 | [9] 0.019 | barasertib 0.026 | [10] 0.089 | volasertib 0.024 | [11] -0.068 | [12] -0.106 | [13] 0.044 | saracatinib 0.068 | sotrastaurin -0.022
